According to publication PMC7272049:
These are yes or no findings as the source states them, for the method shown. Tags and fused reporters may be left off the sequences shown.

Sequences of proteins named here, by UniProt entry; tags and fusion partners are left off. A change or cut given only in a name is not applied to a line headed by its entry.
UniProt Q9EP73: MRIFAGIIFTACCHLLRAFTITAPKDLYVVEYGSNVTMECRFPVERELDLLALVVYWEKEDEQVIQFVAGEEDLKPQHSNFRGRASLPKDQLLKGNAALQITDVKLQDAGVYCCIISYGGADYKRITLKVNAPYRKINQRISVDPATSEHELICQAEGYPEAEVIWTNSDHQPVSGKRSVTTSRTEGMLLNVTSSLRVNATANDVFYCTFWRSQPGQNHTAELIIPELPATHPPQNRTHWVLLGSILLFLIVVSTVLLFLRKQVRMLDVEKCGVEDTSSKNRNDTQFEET

Molecular target: T1, murine CD200 mCherry fusion (mouse) (UniProt O54901)
T1 sequence: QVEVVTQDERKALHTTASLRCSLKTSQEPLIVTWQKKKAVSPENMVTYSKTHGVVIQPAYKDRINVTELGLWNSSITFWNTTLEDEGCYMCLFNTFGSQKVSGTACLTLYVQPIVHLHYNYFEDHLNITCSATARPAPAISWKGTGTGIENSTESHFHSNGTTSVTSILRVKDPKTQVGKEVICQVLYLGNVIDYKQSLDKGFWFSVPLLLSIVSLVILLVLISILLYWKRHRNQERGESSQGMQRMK
Test: cell microarray; live cells on slides expressing mCherry fusions in alternating rows; Fc-fusion (~100 nM) pre-incubated with labelled secondary antibody (~200 nM); RT 30 min, 1x PBS 0.2% BSA; only the binder purified

## mPD-L1 hIgG1 (from UniProt Q9EP73 19-239) (Fc fusion)
  binding: no binding (tested: ~100nM)
